Values from PubChem BioAssay AID652272 (Drosophila RNAi Screening Center, 2013)

Aim: 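Genes whose knock-down decreases or increases Hedgehog reporter output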 (primary screen)
Cell system: Drosophila clone 8 (Cl8) cells
Reagents: long dsRNA against Drosophila genes
Measured: 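Firefly light from a Hedgehog-responsive ptc promoter reporter and Renilla reference light, both read on a plate reader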
Reading the numbers: firefly Hh reporter signal: higher = more ptc reporter light; Renilla reference signal: higher = more Renilla control light
Call rule: 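Called a hit if the two-replicate mean z-score lies below -2 or above +3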
Meaning of the calls: active = hit: reporter lowered or raised; inactive = not a hit
The screen tested about 21,000 reagents; this is a random part of those that have a named target and a result. Over the whole deposit, 503 (2.4%) got an active call. 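Raw plate light values, not normalised; calls rest on replicate z-scores that were not deposited; hits include reporter decreases as well as increases.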 A plus sign joins genes that one reagent is predicted to hit. The record does not give: the amount of reagent, the time to read-out.

gene	amplicon	firefly Hh reporter signal, replicate 1	firefly Hh reporter signal, replicate 2	firefly Hh reporter signal, replicate 3	Renilla reference signal, replicate 1	Renilla reference signal, replicate 2	activity call
pyd	DRSC12712	6.88e5	4.09e5	1.26e5	5857	8872	inactive
pyd	DRSC14387	1.63e5	1.07e5		5595	3691	inactive
pyd	DRSC14445	75751	1.14e5		2912	3264	inactive
pyd	DRSC14509	1.19e5	1.74e5		4873	4829	inactive
pyd	DRSC16547	1.39e5	94150		5340	3608	inactive
pyd	DRSC16548	85845	1.43e5		3101	3921	inactive
pyd	DRSC17041	1.07e5	1.91e5		4304	5188	inactive
CG4281	DRSC18521	1.04e5	86246		2331	2688	inactive
Pfdn6	DRSC10915	1.42e5	1.52e5		5073	4260	inactive
Claspin	DRSC08308	6.98e5	73075		3452	3452	inactive
CG7650	DRSC10898	1.94e5			10920	5970	inactive
Tep3	DRSC03452	1.16e5	57450		3600	3396	inactive
AGBE	DRSC06861	1.27e5	36780		4156	1155	inactive
CG13084	DRSC02188	72960	54060		1970	4594	inactive
CG10874	DRSC00297	77885	90055		2395	2296	inactive
CG34278	DRSC13208	53872	2.39e5		11062	6067	inactive
CG13725	DRSC10054	4.71e5	62656		2744	2744	inactive
ssp6	DRSC08791	1.46e5	2.46e5		4176	11092	inactive
ssp6	DRSC10677	22225	35260		3880	2936	inactive
CG32333	DRSC08627	98683	75690		5453	3449	inactive
CG32333	DRSC08629	41592	25573		1701	2025	inactive
Obp56a	DRSC06085	91349	58236		2224	4068	inactive
Obp56b	DRSC06551	73864	45347		1884	3385	inactive
ftz-f1	DRSC11347	1.26e5			1548	2173	inactive
CG10866	DRSC08171	1.05e5	47729		2346	3794	inactive
CG8468	DRSC07190	1.24e5	42525		3520	1221	inactive
CG14667	DRSC12253	64125	1.01e5		2227	2900	inactive
CG2217 + CG42740	DRSC14141	1.02e5	76071		2396	2195	inactive
alphaSnap	DRSC11285	43441	38960		2407	2520	active
CG32280	DRSC08024	97458	2.71e5		2777	10298	inactive
CG12817	DRSC14555	92921	1.79e5		2809	4551	inactive
Ucp4B + asRNA:CR43465	DRSC02665	1.02e5	76741		2395	6966	inactive
mmy	DRSC02002	61430	58201		2407	2300	inactive
CG15260	DRSC01977	1.21e5	59872		3674	4941	inactive
Roc1b + Cdc5	DRSC08687	1.10e5	58104		2747	3616	inactive
CG1236	DRSC12203	1.59e5	1.55e5		7456	5475	inactive
Prdm13	DRSC09970	74077	66610		8347	5558	inactive
CG6621	DRSC16076	83280	80791		3850	2775	inactive
CG42399	DRSC00322	1.30e5	99915		2922	2757	inactive
CG42399	DRSC00661	1.29e5	96919		2861	2701	inactive

Records listed so far whose target name begins with A or a:
gene	amplicon	firefly Hh reporter signal, replicate 1	firefly Hh reporter signal, replicate 2	firefly Hh reporter signal, replicate 3	Renilla reference signal, replicate 1	Renilla reference signal, replicate 2	activity call
AGBE	DRSC06861	1.27e5	36780		4156	1155	inactive
alphaSnap	DRSC11285	43441	38960		2407	2520	active
